Source: paper PMC3469465, “Muscle-Specific Splicing Factors ASD-2 and SUP-12 Cooperatively Switch Alternative Pre-mRNA Processing Patterns of the ADF/Cofilin Gene in Caenorhabditis elegans”

Tested on: GST-ASD-2b + His-SUP-12
Assay: pull-down
Settings: 20 mM HEPES-KOH pH 7.9, 150 mM KCl, 5% glycerol (EMSA only), 1% Triton X-100, 1 mM DTT, 0.1 mM PMSF, 100 ng/ul E. coli tRNA, 50 ng/ul BSA, 30 min, 20 C, recombinant protein
[1] = RNA less effectively enhances ASD-2b/SUP-12 pull-down

Row | Sequence | binding result (RNA enhances SUP-12 pull-down by GST-ASD-2b dose-dependently) | binding result [1]
1 | UUUUUGCCUAACCUAACCUAACCUAUGUGUGCCUGUUUU [unc-60-I1A-WT] | binds | –
2 | UUUUUGCCAAACCAAACCAAACCUAUGUGUGCCUGUUUU [unc-60-I1A-M1] | – | binds more weakly
3 | UUUUUGCCUAACCUAACCUAACCUAUAUAUACCUGUUUU [unc-60-I1A-M2] | – | binds more weakly

The exact form of at least one protein or probe is not confirmed. The comparison behind a weaker result is the experiment's own reference, which may not be listed here.
